Source: PubChem BioAssay (NCATS)
Values joined by “and” are separate entries in the source; they are usually repeats but may differ in a detail not shown here. Equal entries are not always repeated. This list was built around the results that the source calls inconclusive (neither active nor inactive); the mix of calls is not that of the screen. A potency beside an inconclusive call is a rough fit, not a confirmed value. Active and inactive are the calls of the source. Unless noted, calls come from the whole dose curve; as a rule, active = well fitted curve in the direction sought with a large enough effect; inconclusive = small, poorly fitted or top-dose-only effect, or another doubt; inactive = no such curve, though single readings can be large; an effect the other way counts as inactive or inconclusive. Where a SMILES comes first, the peptide text is derived from it. [ ]: non-standard residue; d: D form. The star is where a group is joined. Sta = CC(C)C[C@H](N)[C@@H](O)CC(=O)O; Isovaleryl = CC(C)CC(=O)*

Legend:
[1] = Quantitative High-Throughput drug screen in 47 multiple myeloma cell lines against the NCATS MIPE library collection: UTMC2_PLB cell viability assay (AID 1919868); details: CellTiter-Glo ATP luminescence, 48 h; viability (% of DMSO control): at 45.8 µM (top of the series); note: nearly all actives have a fitted effect of over 55% in size
How it was run: (§1)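 Inhibition of viability over 48 h was scored by ATP content (CellTiter-Glo) in 500-cell wells. Zero and full viability were defined by media-only and DMSO-only wells.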

[2] = Quantitative High-Throughput drug screen in 47 multiple myeloma cell lines against the NCATS MIPE library collection: PCM6_Riken cell viability assay (AID 1919870); details: CellTiter-Glo ATP, 48 h; viability (% of control): at 45.8 µM (top of the series); note: nearly all actives have a fitted effect of over 30% in size
How it was run: as §1

[3] = Quantitative High-Throughput drug screen in 47 multiple myeloma cell lines against the NCATS MIPE library collection: OPM2_DSMZ cell viability assay (AID 1919872); note: nearly all actives have a fitted effect of over 30% in size
How it was run: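 Myeloma cell lines, 500 cells per well, exposed to MIPE 4.0 library compounds for 48 h at 37C, 5% CO2. Viability from ATP by CellTiter-Glo luminescence; normalised to DMSO (100%) and media-only (0%) wells.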

[4] = Quantitative High-Throughput drug screen in 47 multiple myeloma cell lines against the NCATS MIPE library collection: KMS11_JCRBsus cell viability assay (AID 1919873); note: nearly all actives have a fitted effect of over 50% in size
How it was run: as §1

[5] = Quantitative High-Throughput drug screen in 47 multiple myeloma cell lines against the NCATS MIPE library collection: KMS28BM_JCRB cell viability assay (AID 1919874); note: nearly all actives have a fitted effect of over 35% in size
How it was run: as §1

HEK293 = assay: Cytotoxic Profiling of Annotated Libraries Using Quantitative High-Throughput Screening (AID 1296008); details: Five cell lines viability, CellTiter-Glo ATP luminescence, 48-72 h; max response: active compounds read low; note: nearly all actives have a fitted effect of over 60% in size; for max response: % is set by controls: 0 for no effect and ±100 for the full control effect
How it was run: (§2)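 Cytotoxicity was measured as CellTiter-Glo ATP luminescence, read after 10 min at room temperature. Compound treatment of the cells lasted 48 or 72 hr at 37 degrees Celsius in a qHTS format.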

[6] = Quantitative High-Throughput drug screen in 47 multiple myeloma cell lines against the NCATS MIPE library collection: RPMI8226_ATCC cell viability assay (AID 1919871); note: nearly all actives have a fitted effect of over 30% in size
How it was run: as §1

HaCat = assay: Cytotoxic Profiling of Annotated Libraries Using Quantitative High-Throughput Screening (AID 1296008); details: Five cell lines viability, CellTiter-Glo ATP luminescence, 48-72 h; max response: active compounds read low; note: nearly all actives have a fitted effect of over 60% in size; for max response: % is set by controls: 0 for no effect and ±100 for the full control effect
How it was run: as §2

[7] = qHTS for identification of novel therapeutic agents for treatment of microphthalmiaassociated transcription factor (MiT) renal cell carcinoma (RCC) (AID 1963991; calls by dose curve); details: TFE3-RCC UOK109 viability, CellTiter-Glo, 48 h; active = Z-AUC below -0.8 in all three lines
How it was run: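 Viability of three TFE3-fusion renal carcinoma lines measured by CellTiter-Glo after 48 h treatment with each of 1912 compounds at 11 concentrations. Responses scaled between DMSO (100%) and empty wells (0%) before curve fitting.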

MCC-13 = assay: qHTS assay to identify novel small-molecules to repurpose for Merkel cell carcinoma treatment (AID 1296009); details: MCC and control cell lines, CellTiter-Glo viability, 72 h; series mostly up to 46 µM; note: nearly all actives have a fitted effect of over 60% in size
How it was run: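 72 hr, 37 degree celsius; NPC 8-pt / MIPE 11-pt dose response; compound pinned in DMSO; CellTiter-Glo, 10 min RT, luminescence; normalized to no-cell and DMSO controls.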

[8] = Quantitative High-Throughput drug screen in 47 multiple myeloma cell lines against the NCATS MIPE library collection: PE2_PLB cell viability assay (AID 1919869); note: nearly all actives have a fitted effect of over 35% in size
How it was run: as §1

NIH3T3 = assay: Cytotoxic Profiling of Annotated Libraries Using Quantitative High-Throughput Screening (AID 1296008); details: Five cell lines viability, CellTiter-Glo ATP luminescence, 48-72 h; max response: active compounds read low; note: nearly all actives have a fitted effect of over 60% in size; for max response: % is set by controls: 0 for no effect and ±100 for the full control effect
How it was run: as §2

KB-3-1 = assay: as above; details: Five cell lines viability, CellTiter-Glo ATP luminescence, 48-72 h; max response: active compounds read low
How it was run: as §2
Potency is the fitted concentration of half-maximal effect.

CN(C)c1ccc(C2Nc3ccc4ccccc4c3C3=C2C(=O)CC(C)(C)C3)cc1Br (centres undefined)
inactive: Potency [2] | Potency [3] | Potency [5]
inconclusive: Potency [1] 3.72 µM [cytotoxic, full curve, poor fit] | Potency [4] 8.33 µM [cytotoxic, partial curve, poor fit] | Potency (HEK293) 29.6 µM [inhibitor, single point] and 18.4 µM [inhibitor, single point]

CC(C)CC(=O)N[C@H](C(=O)N[C@H](C(=O)N[C@@H](CC(C)C)[C@@H](O)CC(=O)N[C@@H](C)C(=O)N[C@@H](CC(C)C)[C@@H](O)CC(=O)O)C(C)C)C(C)C (Isovaleryl-VV[Sta]A[Sta]-OH)
inconclusive: Potency [1] 0.0148 µM [rising, full curve, poor fit] | Potency [2] 13.2 µM [cytotoxic, partial curve, poor fit] | Potency [6] 0.0526 µM [rising, full curve, poor fit] | Potency (HaCat) 2.66 µM [inhibitor, full curve]

CCOC(=O)O[C@]1(C(=O)OCCl)CC[C@@H]2[C@H]3CCC4=CC(=O)C=C[C@]4(C)[C@@H]3[C@@H](O)C[C@@]21C
inconclusive: Potency [1] 4.18 µM [cytotoxic, full curve, poor fit]
inactive: Potency [5] | outcome (HEK293)

CC(C)n1nc(-c2ccc3oc(N)nc3c2)c2c(N)ncnc21
active: Potency [2] 0.0662 µM | Potency [7] 0.0372 µM
inconclusive: viability (% of DMSO control) [1] 0.632% [cytotoxic] | Potency [3] 0.0042 µM [cytotoxic, full curve] | Potency [4] 4.69 µM [cytotoxic, partial curve] | Potency [5] 0.0074 µM [cytotoxic, full curve] | Potency (HaCat) 4.18 µM [inhibitor, partial curve, poor fit] | Potency (MCC-13) 0.0372 µM [inhibitor, full curve]

3 structures out of the list, sorted by molar mass, rising:
CCOC(=O)O[C@]1(C(=O)OCCl)CC[C@@H]2[C@H]3CCC4=CC(=O)C=C[C@]4(C)[C@@H]3[C@@H](O)C[C@@]21C
inconclusive: Potency [1] 4.18 µM [cytotoxic, full curve, poor fit]
inactive: Potency [5] | outcome (HEK293)

CN(C)c1ccc(C2Nc3ccc4ccccc4c3C3=C2C(=O)CC(C)(C)C3)cc1Br (centres undefined)
inactive: Potency [2] | Potency [3] | Potency [5]
inconclusive: Potency [1] 3.72 µM [cytotoxic, full curve, poor fit] | Potency [4] 8.33 µM [cytotoxic, partial curve, poor fit] | Potency (HEK293) 29.6 µM [inhibitor, single point] and 18.4 µM [inhibitor, single point]

CC(C)CC(=O)N[C@H](C(=O)N[C@H](C(=O)N[C@@H](CC(C)C)[C@@H](O)CC(=O)N[C@@H](C)C(=O)N[C@@H](CC(C)C)[C@@H](O)CC(=O)O)C(C)C)C(C)C (Isovaleryl-VV[Sta]A[Sta]-OH)
inconclusive: Potency [1] 0.0148 µM [rising, full curve, poor fit] | Potency [2] 13.2 µM [cytotoxic, partial curve, poor fit] | Potency [6] 0.0526 µM [rising, full curve, poor fit] | Potency (HaCat) 2.66 µM [inhibitor, full curve]

The listing continues.

O=C(NC1CC1)c1cccc(-c2ccc3c(NC(=O)C4CC4)n[nH]c3c2)c1
inconclusive: Potency [1] 10.5 µM [cytotoxic, full curve, poor fit] | Potency [8] 7.43 µM [cytotoxic, full curve] | Potency [2] 14.8 µM [cytotoxic, partial curve] | Potency [6] 29.6 µM [cytotoxic, partial curve] | Potency [5] 6.62 µM [cytotoxic, full curve] | Potency [7] 14.8 µM [falling, partial curve] | Potency (HaCat) 37.2 µM [inhibitor, partial curve, poor fit] | Potency (NIH3T3) 33.2 µM [inhibitor, single point] | Potency (MCC-13) 14.8 µM [inhibitor, partial curve, poor fit]

CCN1C[C@H](C)n2c(c(O)c3c(=O)n(Cc4ccc(F)c(Cl)c4)nc(C(=O)NC)c32)C1=O
inconclusive: Potency [2] 37.2 µM [cytotoxic, single point] | Potency [6] 2.96 µM [cytotoxic, partial curve, poor fit] | Potency (NIH3T3) 37.2 µM [inhibitor, single point]
inactive: Potency [1] | Potency [8] | max response (HaCat) -5.77% and -3.93% | max response (NIH3T3) 0.921% and -1.89%

COc1cc(NC(=O)c2ccc(-c3ccc(Cl)cc3)o2)cc(OC)c1
inconclusive: Potency [3] 0.0066 µM [rising, full curve, poor fit] | Potency [7] 2.64 µM [falling, full curve]
inactive: Potency [5] | max response (HEK293) 2.11%

Cc1nccn1CC1CCc2c(c3ccccc3n2C)C1=O (centres undefined)
inconclusive: Potency [1] 37.2 µM [cytotoxic, single point] | Potency [4] 11.8 µM [cytotoxic, single point]
inactive: max response (HEK293) -1.64% and -12.7% and -0.203%

c1cnc2cc3c(cc2n1)C1CNCC3C1
inactive: Potency [3] | Potency [4] | max response (HaCat) 2.53% | outcome (HaCat) | max response (NIH3T3) 4.61% | outcome (NIH3T3)
inconclusive: Potency [1] 10.5 µM [rising, partial curve, poor fit]

CCOc1cc(CC(=O)N[C@@H](CC(C)C)c2ccccc2N2CCCCC2)ccc1C(=O)O
inconclusive: Potency [1] 4.69 µM [rising, partial curve, poor fit] | Potency [8] 37.2 µM [cytotoxic, single point]
inactive: Potency [4] | outcome (HaCat)

CC(=O)SCC(Cc1ccccc1)C(=O)NCC(=O)OCc1ccccc1 (centres undefined)
inconclusive: Potency [4] 20.9 µM [cytotoxic, partial curve] | Potency [7] 2.35 µM [falling, full curve] | Potency (HEK293) 11.8 µM [inhibitor, single point]
active: Potency [2] 1.48 µM

O=C(C=Cc1cccnc1)NCCCCC1CCN(C(=O)c2ccccc2)CC1
active: Potency [1] 0.001 µM | Potency [5] 0.0833 µM | Potency (HEK293) 0.0074 µM
inconclusive: Potency [7] 0.296 µM [falling, partial curve, poor fit]

C[C@]12CC[C@H](O)CC1=CCC1C2CC[C@]2(C)C(n3cnc4ccccc43)=CCC12 (some centres undefined)
inconclusive: Potency [1] 11.8 µM [rising, single point] | Potency [6] 33.2 µM [cytotoxic, single point] | Potency (HaCat) 7.31 µM [inhibitor, partial curve, poor fit] | Potency (KB-3-1) 16.4 µM [inhibitor, partial curve, poor fit]
inactive: Potency [2] | Potency [4]

O=c1[nH]c(=O)n([C@H]2C[C@@H](O)[C@@H](CO)O2)cc1I
inconclusive: Potency [1] 0.0166 µM [rising, full curve, poor fit] | Potency [2] 0.235 µM [rising, full curve, poor fit] | Potency [6] 18.7 µM [cytotoxic, partial curve, poor fit] | Potency [3] 1.32 µM [cytotoxic, partial curve, poor fit]
inactive: Potency [8] | max response (HaCat) 1.35%

CN(C)C1CCN(C(=O)c2ccc(NC(=O)Nc3nc(N4CCOCC4)nc(N4CCOCC4)n3)cc2)CC1
inconclusive: Potency [1] 0.0118 µM [cytotoxic, full curve] | Potency [8] 0.0118 µM [cytotoxic, full curve] | Potency [4] 0.0118 µM [cytotoxic, full curve] | Potency [5] 0.0332 µM [cytotoxic, full curve] | Potency (MCC-13) 3.32 µM [inhibitor, full curve]
active: Potency [3] 0.0209 µM | Potency (HaCat) 0.252 µM | Potency (NIH3T3) 0.0935 µM

CC(=O)OC1C(C)OC(Oc2c(-c3ccc(O)cc3)oc3cc(O)cc(O)c3c2=O)C(O)C1OC(C)=O (centres undefined)
inactive: Potency [3] | Potency [5]
inconclusive: Potency [1] 0.372 µM [cytotoxic, partial curve, poor fit] | Potency [8] 7.43 µM [cytotoxic, partial curve] | Potency [2] 9.35 µM [cytotoxic, partial curve, poor fit] | Potency [4] 8.33 µM [cytotoxic, partial curve, poor fit] | Potency [7] 18.7 µM | Potency (HaCat) 26.4 µM [inhibitor, partial curve, poor fit] | Potency (NIH3T3) 37.2 µM [inhibitor, partial curve, poor fit]

N=C(N=C(N)N)N1CCOCC1
inactive: Potency [1] | Potency [3]
inconclusive: Potency [2] 11.8 µM [cytotoxic, single point] | Potency [6] 20.9 µM [cytotoxic, single point] | Potency (HaCat) 1.06 µM [inhibitor, full curve]

O=C(O)C1=NC(C(=O)O)CC(C=CN2c3cc(O)c(OC4OC(CO)C(O)C(O)C4O)cc3CC2C(=O)O)=C1 (centres undefined)
inactive: Potency [6] | Potency [4] | outcome (HaCat)
inconclusive: Potency [1] 4.18 µM [rising, partial curve, poor fit] | Potency [2] 0.001 µM | Potency [3] 11.8 µM [cytotoxic, single point] | Potency [5] 8.33 µM [cytotoxic, single point]

COc1ccc(Cc2ccc(NC(N)=O)cc2)cc1-c1cccc(Cl)c1
inactive: Potency [8]
inconclusive: Potency [1] 37.2 µM [rising, single point] | Potency [2] 0.0053 µM [rising, full curve] | Potency [4] 13.2 µM [cytotoxic, partial curve, poor fit] | Potency (HaCat) 29.1 µM [inhibitor, single point]

Cc1ccc(C2=Nc3ccc(Cl)cc3OC2)cc1
inactive: Potency [5]
inconclusive: Potency [1] 11.8 µM [cytotoxic, partial curve, poor fit] | Potency [4] 23.5 µM [cytotoxic, partial curve, poor fit] | Potency [7] 26.4 µM [falling, partial curve, poor fit] | Potency (HEK293) 33.2 µM [inhibitor, single point]
